Patent US8173668B1 (Alcon Research, Ltd., priority 2007, dated 2012)
At least one structure is not confirmed: it was looked up by name or label, or the drawing left a doubt.

Test system: Human trabecular meshwork (TM) cells
Assay: PGE2 production (RIA) in human trabecular meshwork cells
Assay type: cell-based
Details: 1 h at 37° C., BK 100 nM or 1 μM, fluprostenol 1 μM, non-peptide agonists 1 μM or 10 μM, FIG. 6
Description: The ability of BK agonists to stimulate prostaglandin E2 (PGE2) production was examined as follows. Human trabecular meshwork (TM) cells were seeded in culture plates and allowed to reach confluence. […] Fluprostenol was used as a positive control. After this time the assay was terminated by placing the assay plates on ice and by the addition of 100 μL of a cell-lysis reagent supplied with the PGE2 radioimmunoassay (RIA) kit (Amersham Pharmacia Biotech, Arlington Heights, Ill.). All reagents and standards supplied in the RIA kit were prepared and the RIA performed according to the manufacturer's instructions. Assay buffer, diluted prostaglandin E2 (PGE2) standard and supernatant from the cell-based experiment (diluted 1:100 v/v) were then pipetted into appropriate tubes as specified in the kit instructions. […]
After this incubation, all tubes were placed in an ice-bath and 1 ml cold precipitating reagent supplied in the kit was added to the tubes, the content mixed and incubated for 25 min at 4° C. […] The supernatants of all tubes were decanted as specified in the kit instructions and the RIA samples analyzed on a gamma-counter. The levels of PGE2 generated by the test agent were then quantified in comparison with the PGE2-standard curve. Dose-response data for the test agent were constructed and the potency and intrinsic activity determined as described above for other assays.

## H-RPPGFSPFR-OH [BK]
  production of endogenous prostaglandins (PGE2): stimulate the production of endogenous prostaglandins
